Experiment [1] addresses Myc-tagged LRP6N (LRP6N-Myc), extracellular portion of LRP6 (UniProt O75581). The experiment in a line: IP/western, LRP6N-Myc with V5-tagged IGFBP.
Experiment [2] has the same target. The experiment in a line: IP/western.
Experiment [3] concerns the target LRP6 E1-2/L mutant (soluble, Myc-tagged LRP6 deletion mutant) (UniProt O75581). Briefly: IP/western with LRP6 deletion mutants.
The target is the same in experiment [4]. Briefly: IP/western, Myc-tagged LRP6 mutant with IGFBP-4-V5.
For experiment [5], the target named is Myc-tagged LRP6N (LRP6N-Myc), extracellular portion of LRP6 (UniProt O75581). The experiment in a line: IP/western, LRP6N-Myc with IGFBP-4-V5.

By UniProt entry, the sequences of proteins in these tests, tags left out. Where a name states a change or a piece, a line headed by the entry shows the natural chain unless it says otherwise. Chains listed by the source or under a name are the forms on record and can include a tag or linker. Residues count along the entry.
Myc-tagged LRP6N (LRP6N-Myc), extracellular portion of LRP6 (O75581, residues 20-1370): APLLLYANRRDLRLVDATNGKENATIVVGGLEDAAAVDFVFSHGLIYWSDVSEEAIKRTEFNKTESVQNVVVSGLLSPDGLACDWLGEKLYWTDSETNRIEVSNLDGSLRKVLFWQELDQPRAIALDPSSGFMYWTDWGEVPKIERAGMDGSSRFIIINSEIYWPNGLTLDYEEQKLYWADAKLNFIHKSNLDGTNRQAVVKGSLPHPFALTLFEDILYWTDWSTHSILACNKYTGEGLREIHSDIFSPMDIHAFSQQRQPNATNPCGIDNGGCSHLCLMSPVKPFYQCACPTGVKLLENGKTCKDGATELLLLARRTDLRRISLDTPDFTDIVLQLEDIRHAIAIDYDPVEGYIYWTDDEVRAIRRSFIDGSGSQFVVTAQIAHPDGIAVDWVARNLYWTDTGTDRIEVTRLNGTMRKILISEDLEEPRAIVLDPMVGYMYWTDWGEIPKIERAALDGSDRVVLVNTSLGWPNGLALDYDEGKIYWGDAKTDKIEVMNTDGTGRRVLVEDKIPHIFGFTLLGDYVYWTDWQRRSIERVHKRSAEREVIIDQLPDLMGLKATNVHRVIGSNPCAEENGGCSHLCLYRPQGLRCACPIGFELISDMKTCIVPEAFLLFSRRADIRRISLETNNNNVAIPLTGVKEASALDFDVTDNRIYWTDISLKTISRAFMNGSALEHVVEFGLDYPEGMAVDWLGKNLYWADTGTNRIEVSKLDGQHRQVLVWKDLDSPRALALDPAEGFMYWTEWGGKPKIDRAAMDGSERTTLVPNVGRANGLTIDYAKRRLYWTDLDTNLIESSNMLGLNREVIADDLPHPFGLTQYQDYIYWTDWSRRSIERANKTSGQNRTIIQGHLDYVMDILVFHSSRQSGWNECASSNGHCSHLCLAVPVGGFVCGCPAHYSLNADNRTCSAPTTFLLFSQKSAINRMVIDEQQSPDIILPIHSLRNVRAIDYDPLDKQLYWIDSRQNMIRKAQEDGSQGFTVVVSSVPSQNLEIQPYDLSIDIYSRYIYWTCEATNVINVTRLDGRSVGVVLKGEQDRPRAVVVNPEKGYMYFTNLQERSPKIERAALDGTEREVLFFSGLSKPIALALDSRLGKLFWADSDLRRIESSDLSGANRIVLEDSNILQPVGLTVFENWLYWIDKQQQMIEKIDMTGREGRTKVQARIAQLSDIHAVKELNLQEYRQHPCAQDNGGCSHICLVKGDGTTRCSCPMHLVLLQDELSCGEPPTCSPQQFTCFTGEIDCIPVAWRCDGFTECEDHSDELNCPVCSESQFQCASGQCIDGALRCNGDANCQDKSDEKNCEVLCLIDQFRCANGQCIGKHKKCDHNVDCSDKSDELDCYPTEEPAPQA
LRP6 E1-2/L mutant (soluble, Myc-tagged LRP6 deletion mutant) (O75581, form named): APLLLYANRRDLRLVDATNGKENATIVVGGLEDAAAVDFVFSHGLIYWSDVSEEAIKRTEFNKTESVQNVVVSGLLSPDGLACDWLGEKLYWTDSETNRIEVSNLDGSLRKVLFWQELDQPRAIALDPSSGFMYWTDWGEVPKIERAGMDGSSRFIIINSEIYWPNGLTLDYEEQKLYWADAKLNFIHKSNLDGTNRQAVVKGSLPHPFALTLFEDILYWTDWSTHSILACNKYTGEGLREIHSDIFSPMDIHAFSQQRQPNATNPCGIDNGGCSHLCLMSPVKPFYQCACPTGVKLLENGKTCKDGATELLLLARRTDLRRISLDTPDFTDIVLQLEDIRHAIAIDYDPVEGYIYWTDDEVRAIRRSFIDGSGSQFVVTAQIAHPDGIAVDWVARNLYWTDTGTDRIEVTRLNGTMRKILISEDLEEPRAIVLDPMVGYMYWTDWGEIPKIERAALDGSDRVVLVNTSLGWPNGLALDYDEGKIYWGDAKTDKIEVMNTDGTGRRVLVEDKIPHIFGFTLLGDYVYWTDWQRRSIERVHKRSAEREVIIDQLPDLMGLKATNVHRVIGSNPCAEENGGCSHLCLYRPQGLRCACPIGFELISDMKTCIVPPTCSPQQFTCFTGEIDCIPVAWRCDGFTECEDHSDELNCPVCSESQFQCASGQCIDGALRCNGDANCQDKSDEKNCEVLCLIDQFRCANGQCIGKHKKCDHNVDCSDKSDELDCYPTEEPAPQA

No constants are given. Whether binding was seen depends on the method and setting. Some entries that bind do so weakly or less than the wild type. Tags and fused reporters may be left off the sequences shown.

B1: IGFBP-2 (V5-tagged) (protein, mouse, UniProt P47877 35-305, looked up, not shown: small tags and cut ends)
chain: EVLFRCPPCTPERLAACGPPPDAPCAELVREPGCGCCSVCARQEGEACGVYIPRCAQTLRCYPNPGSELPLKALVTGAGTCEKRRVGTTPQQVADSDDDHSEGGLVENHVDGTMNMLGGGSSAGRKPLKSGMKELAVFREKVNEQHRQMGKGAKHLSLEEPKKLRPPPARTPCQQELDQVLERISTMRLPDDRGPLEHLYSLHIPNCDKHGRYNLKQCKMSLNGQRGECWCVNPNTGKPIQGAPTIRGDPECHLFYNEQQETGGAHAQSVQ
As to B1, the binding entry in experiment [1] and in experiment [2] was “binds” in each case.

B2: IGFBP-6 (V5-tagged) (protein, mouse, UniProt P47880 26-238, looked up, not shown: small tags and cut ends)
chain: ALAGCPGCGAGMQTGCRGGCVEEEDAGSPADGCTEAGGCLRREGQPCGVYSPKCAPGLQCQPRENEEAPLRALLIGQGRCQRARGPSEETTKESKPQGGASRSRDTNHRDRQKNPRTSAAPIRPNPVQDSEMGPCRRHLDSVLQQLQTEVFRGGARGLYVPNCDLRGFYRKQQCRSSQGNRRGPCWCVDPMGQPLPVSPDGQGSTQCSARSSG
In the case of B2, the binding result in experiment [1] and in experiment [2] was “binds” in each case.

B3: IGFBP-1 (V5-tagged) (protein, mouse, UniProt P47876 26-272, looked up, not shown: small tags and cut ends)
chain: APQPWHCAPCTAERLGLCPPVPASCPEISRPAGCGCCPTCALPMGAACGVATARCAQGLSCRALPGEPRPLHALTRGQGACVPEPAAPATSTLFSSQHEEAKAAVVSADELSESPEMTEEQLLDSFHLMAPSREDQPILWNAISTYSSMRAREIADLKKWKEPCQRELYKVLERLAAAQQKAGDEIYKFYLPNCNKNGFYHSKQCETSLDGEAGLCWCVYPWSGKKIPGSLETRGDPNCHQYFNVHN
Turning to B3, the binding result in experiment [1] and in experiment [2] was “binds” in each case.

B4: V5-tagged IGFBP4 (IGFBP-4-V5) (protein, mouse, UniProt P47879 22-254, looked up, not shown: small tags and cut ends)
chain: DEAIHCPPCSEEKLARCRPPVGCEELVREPGCGCCATCALGLGMPCGVYTPRCGSGMRCYPPRGVEKPLRTLMHGQGVCTELSEIEAIQESLQTSDKDESEHPNNSFNPCSAHDHRCLQKHMAKIRDRSKMKIVGTPREEPRPVPQGSCQSELHRALERLAASQSRTHEDLFIIPIPNCDRNGNFHPKQCHPALDGQRGKCWCVDRKTGVKLPGGLEPKGELDCHQLADSFQE
Take B4: the binding result in experiment [1], in experiment [2], in experiment [3], in experiment [4] and in experiment [5] was “binds” each time.

Source of the values: patent US20110243899A1 (NATIONAL UNIVERSITY CORPORATION CHIBA UNIVERSITY, published 2011).
